# Results from one PubChem assay

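A 30-minute cAMP HTRF measurement in gsp-mutant cells, scoring the rise in signal.
The number is the percent increase in cAMP at the top dose compared with control; a higher positive value means stronger activation.
Calls come from the curve class and fit quality; weak, top-dose-only or poorly fitted effects are called inconclusive.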

Values are in %.
Common to all entries: at 76.9 µM (top of the series).
Every entry below has the call inconclusive.
These entries are mostly ones the record files as inconclusive; other results of the assay are not listed here.

Result for CSCc1cc(N(C)c2ccccc2)nc(-c2ccccn2)n1 was activation (cAMP increase) -4.743% (activator). Result for COc1ccc(CC(=O)OCC(=O)NCc2ccccc2Cl)cc1OC was activation (cAMP increase) 45.79% (activator). Result for CCOC(=O)C(O)(c1ccc(NC(=O)c2ccco2)c(OC)c1)C(F)(F)F (stereo not shown) was activation (cAMP increase) 6.855% (activator). Nc1nc2ccccc2nc1N gave activation (cAMP increase) 4.992% (activator).

With COc1ccccc1NC(=O)c1ccc(C(=O)Nc2ccccc2OC)nc1 the assay gave activation (cAMP increase) -9.852% (activator). CC(=O)N1CC(=O)Nc2ccc(Br)cc2C1c1ccc(F)cc1 (stereo not shown) gave activation (cAMP increase) 17.01% (activator). With CC1=NC(C)(C)Cc2ccccc21 the assay gave activation (cAMP increase) -24.01% (activator). Result for CN(C)c1ccc2nc3ccc(=[N+](C)C)cc-3sc2c1 was activation (cAMP increase) 70.39% (activator).

COC(=O)C1=C(c2ccc(F)cc2F)C[C@@H]2CC[C@H]1N2C(=O)NCCNC(C)=O gave activation (cAMP increase) -28.29% (activator). CCOC(CNC(=O)c1cccn2c(=O)c3c(C)c(C)sc3nc12)OCC gave activation (cAMP increase) -11.16% (activator). CCCCCc1cc(O)c2c3c(c(=O)oc2c1)CN(C)CC3 gave activation (cAMP increase) -16.78% (activator).

Some entries from above, unchanged:

Compound	activation (cAMP increase) (%)	curve
CN(C)c1ccc2nc3ccc(=[N+](C)C)cc-3sc2c1	70.39	activator
CCCCCc1cc(O)c2c3c(c(=O)oc2c1)CN(C)CC3	-16.78	activator

From PubChem BioAssay record AID624287 (NCATS, 2012).